Assay results from patent US20230348578A1, “CONFORMATION-SPECIFIC ANTIBODIES THAT BIND TAU PROTEIN AND USES THEREOF” (Beth Israel Deaconess Medical Center, Inc., priority 2020, published 2023).
Positions count from the first letter of the chain named. Results are given in words; binding and its absence hold for the method and conditions named. Some results given as binding are weak or reduced against the parent protein; the word gives no strength.

Amino acid sequences for entries named in this document (tags omitted). A change or cut given only in a name is not applied to a line headed by its entry. Chains listed by the source or under a name are the forms on record and can include a tag or linker.
cis P-tau, mouse (P10637, form named): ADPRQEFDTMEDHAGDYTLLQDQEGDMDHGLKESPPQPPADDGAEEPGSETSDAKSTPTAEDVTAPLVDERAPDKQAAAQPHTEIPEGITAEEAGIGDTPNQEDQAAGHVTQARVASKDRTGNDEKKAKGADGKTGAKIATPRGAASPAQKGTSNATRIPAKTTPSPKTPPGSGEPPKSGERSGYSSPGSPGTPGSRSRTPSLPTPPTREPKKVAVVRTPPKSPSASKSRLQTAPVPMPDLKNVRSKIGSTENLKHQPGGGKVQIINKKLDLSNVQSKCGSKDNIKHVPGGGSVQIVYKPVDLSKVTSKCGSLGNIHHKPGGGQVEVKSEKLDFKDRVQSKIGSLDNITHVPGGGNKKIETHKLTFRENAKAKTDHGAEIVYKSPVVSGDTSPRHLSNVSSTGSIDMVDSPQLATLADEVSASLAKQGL

B1: Cis-mAb HT2 (humanized) (antibody, V domains shown)
VH: QVQLVQSGAEVKKPGASVKMSCKASGYTFTSYWIHWVKQRPGQGLEWIGVIDPSDSYTRYNQKFKGRATLTVDTSASTAYMELSSLRSEDTAVYYCTTWEVDYWGQGTLVTVSS
VL: DVVMTQSPLSLPVTLGQPASISCRSSQSLVHSDGNTYLHWYLQKPGQSPQLLIYKVSNRFSGVPDRFSGSGSGTDFTLKISRVEAEDVGVYFCSQSTHVPWTFGGGTKVEIK
B2: Cis-mAb HT13 (mouse-human chimera, control) (antibody, V domains shown)
VH: QVQLQQPGAELVKPGASVKMSCKASGYTFTSYWIHWVKQRPGQGLEWIGVIDPSDSYTRYNQKFKGKATLTVDTSSSTAYMQLSSLTSEDSAVYYCTTWEVDYWGQGTTLTVSS
VL: B1 VL with S7T, T14S, Q17D, P18Q, Q50K, V83L, V88L, V109L
B3: Cis-mAb HT10 (humanized) (antibody, V domains shown)
VH: B1 VH
VL: B1 VL with F92Y

molecular target: cis P-tau, mouse (mouse) (UniProt P10637); experiment: immunoblot of whole brain lysates of tau +/+, tau -/- and hTau transgenic mice, probed with the antibody

binding, binds:
B1
B2
B3
